Laboratory results: US20240158446A1 (CHUGAI SEIYAKU KABUSHIKI KAISHA, priority 2021, published 2024)
Some peptides are written in HELM: one residue between dots, names in brackets for other building blocks, links after the first $.

experiment: general procedure: Fmoc solid-phase peptide synthesis; 2-chlorotrityl (CTC) resin; conditions: late stage modification step

Substance	step yield [%]
(2S,8S,12R,14S,20S,23S,27S,30S,36S,38Z)-20-cyclopentyl-2-[(4-cyclopropylphenyl)methyl]-12-ethoxy-27-isobutyl-8-[2-[3-methoxy-4-(trifluoromethyl)phenyl]ethyl]-N,N,3′,3′,4,19,22,26,32,35-decamethyl-30-[(1S)-1-methylpropyl]-3,6,9,15,18,21,25,28,31,34,42-undecaoxo-spiro[1,4,7,10,16,19,22,26,29,32,35-undecazatricyclo[34.5.1.0^10,14]dotetracont-38-ene-17,1′-cyclobutane]-23-carboxamide	3.7
(2S,8S,12R,14S,20S,23S,27S,30S,36S,38Z)-20-cyclopentyl-12-ethoxy-2-[(4-ethylphenyl)methyl]-27-isobutyl-8-[2-[3-methoxy-4-(trifluoromethyl)phenyl]ethyl]-N,N,3′,3′,4,19,22,26,32,35-decamethyl-30-[(1S)-1-methylpropyl]-3,6,9,15,18,21,25,28,31,34,42-undecaoxo-spiro[1,4,7,10,16,19,22,26,29,32,35-undecazatricyclo[34.5.1.0^10,14]dotetracont-38-ene-17,1′-cyclobutane]-23-carboxamide	3.3
(2S,8S,13S,14S,20S,23S,27S,30S,36S,38Z)-20-cyclopentyl-13-(2,2-difluoroethoxy)-8-[2-[3,5-difluoro-4-(trifluoromethyl)phenyl]ethyl]-27-isobutyl-N,N,4,19,22,26,32,35-octamethyl-30-[(1S)-1-methylpropyl]-3,6,9,15,18,21,25,28,31,34,42-undecaoxo-2-[[4-(trifluoromethyl)phenyl]methyl]spiro[1,4,7,10,16,19,22,26,29,32,35-undecazatricyclo[34.5.1.0^10,14]dotetracont-38-ene-17,1′-cyclobutane]-23-carboxamide	53
(2S,8S,13S,14S,20S,23S,27S,30S,36S,38Z)-20-cyclopentyl-27-(cyclopropylmethyl)-13-(2,2-difluoroethoxy)-8-[2-[3,5-difluoro-4-(trifluoromethyl)phenyl]ethyl]-N,N,4,19,22,26,32,35-octamethyl-30-[(1S)-1-methylpropyl]-3,6,9,15,18,21,25,28,31,34,42-undecaoxo-2-[[4-(trifluoromethyl)phenyl]methyl]spiro[1,4,7,10,16,19,22,26,29,32,35-undecazatricyclo[34.5.1.0^10,14]dotetracont-38-ene-17,1′-cyclobutane]-23-carboxamide	54

same assay, conditions: whole synthesis

Substance	isolated yield [%]
(1S,7S,11R,13S,19S,22S,26S,29S,35S,37Z,47E)-7-[2-[3,5-difluoro-4-(trifluoromethyl)phenyl]ethyl]-11-ethoxy-19-(1-ethylpropyl)-3,3′,3′,18,21,25,31,34-octamethyl-29-[(1 S)-1-methylpropyl]-22-(pyrrolidine-1-carbonyl)spiro[3,6,9,15,18,21,25,28,31,34,41-undecazapentacyclo[24.15.10.2^43,46.1^35,41.0^9,13]tetrapentaconta-37,43(53),44,46(52),47-pentaene-16,1′-cyclobutane]-2,5,8,14,17,20,24,27,30,33,54-undecone	16.4
PEPTIDE1{[MeAhpe(2)-E].I.[MeGly].[MeAlgly_c].[ButenylPhe_c].[MeGly].[Hph(4-CF3-35-F2)].[Hyp(Et)].[cVal(3-Me2)].[MeNva(3-Et)].[MeAsp2-pip]}$PEPTIDE1,PEPTIDE1,1:R1-11:R2|PEPTIDE1,PEPTIDE1,1:R3-5:R3|PEPTIDE1,PEPTIDE1,4:R3-5:R4$$$V2.0	31.1
PEPTIDE1{[MeAnone(2)-E].I.[MeGly].[MeAlgly_c].[ButenylPhe_c].[MeGly].[Hph(34-Cl2)].[Hyp(Et)].[cVal].[MeGly(cPent)].[MeAsp2-pyrro]}$PEPTIDE1,PEPTIDE1,1:R1-11:R2|PEPTIDE1,PEPTIDE1,1:R3-5:R3|PEPTIDE1,PEPTIDE1,4:R3-5:R4$$$V2.0	19.9
PEPTIDE1{[MeAnone(2)-E].I.[MeGly].[MeAlgly_c].[ButenylPhe_c].[MeGly].[Hph(34-Cl2)].[Hyp(Et)].[cVal].[MeNva(3-Et)].[MeAsp2-pip]}$PEPTIDE1,PEPTIDE1,1:R1-11:R2|PEPTIDE1,PEPTIDE1,1:R3-5:R3|PEPTIDE1,PEPTIDE1,4:R3-5:R4$$$V2.0	20.9
PEPTIDE1{[MeAocte(2)-E].I.[MeGly].[MeAlgly_c].[ButenylPhe_c].[MeGly].[Hph(4-CF3-35-F2)].[Hyp(Et)].[cVal(3-Me2)].[MeNva(3-Et)].[MeAsp2-NMe2]}$PEPTIDE1,PEPTIDE1,1:R1-11:R2|PEPTIDE1,PEPTIDE1,1:R3-5:R3|PEPTIDE1,PEPTIDE1,4:R3-5:R4$$$V2.0	21.3
